These are yes or no findings as the source states them, for the method shown. For some assays here: In cells and extracts the contact can be indirect. Where a sequence is shown, tags or fusion partners need not be part of it.
T1: BAK1–cYFP (Arabidopsis) (UniProt Q94F62)
T1 sequence: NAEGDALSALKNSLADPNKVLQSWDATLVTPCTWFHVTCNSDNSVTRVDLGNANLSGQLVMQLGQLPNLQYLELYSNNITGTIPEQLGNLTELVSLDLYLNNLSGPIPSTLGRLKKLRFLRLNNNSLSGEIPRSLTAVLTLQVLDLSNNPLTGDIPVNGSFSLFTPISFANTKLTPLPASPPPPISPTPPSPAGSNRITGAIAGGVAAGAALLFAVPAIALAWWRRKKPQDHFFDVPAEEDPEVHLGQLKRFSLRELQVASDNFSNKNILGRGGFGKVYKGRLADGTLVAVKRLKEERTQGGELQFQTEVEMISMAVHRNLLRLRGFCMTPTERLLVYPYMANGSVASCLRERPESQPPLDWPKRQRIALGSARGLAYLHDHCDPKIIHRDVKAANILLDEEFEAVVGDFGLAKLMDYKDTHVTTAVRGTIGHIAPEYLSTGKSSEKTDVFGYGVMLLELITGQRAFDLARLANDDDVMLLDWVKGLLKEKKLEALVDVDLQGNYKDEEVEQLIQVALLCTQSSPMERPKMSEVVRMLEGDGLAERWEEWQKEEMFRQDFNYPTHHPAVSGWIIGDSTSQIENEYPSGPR

By UniProt entry, the sequences of proteins in these tests, tags left out. Residues count along the entry.
UniProt Q9FL28, residues 828-1173: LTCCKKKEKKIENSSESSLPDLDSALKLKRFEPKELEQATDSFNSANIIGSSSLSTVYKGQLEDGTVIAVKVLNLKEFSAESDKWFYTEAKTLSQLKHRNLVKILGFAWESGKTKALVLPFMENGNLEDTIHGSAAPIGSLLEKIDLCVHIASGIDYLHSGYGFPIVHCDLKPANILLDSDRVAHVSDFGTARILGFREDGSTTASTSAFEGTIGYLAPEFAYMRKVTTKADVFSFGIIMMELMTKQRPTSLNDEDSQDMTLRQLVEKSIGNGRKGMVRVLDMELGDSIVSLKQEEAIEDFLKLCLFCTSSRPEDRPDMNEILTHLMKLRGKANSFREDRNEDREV

B1: GST–PUB13 (enzyme, UniProt Q9SNC6 1-660)
chain: MEEEKASAAQSLIDVVNEIAAISDYRITVKKLCYNLARRLKLLVPMFEEIRESNEPISEDTLKTLMNLKEAMCSAKDYLKFCSQGSKIYLVMEREQVTSKLMEVSVKLEQSLSQIPYEELDISDEVREQVELVLSQFRRAKGRVDVSDDELYEDLQSLCNKSSDVDAYQPVLERVAKKLHLMEIPDLAQESVALHEMVASSGGDVGENIEEMAMVLKMIKDFVQTEDDNGEEQKVGVNSRSNGQTSTAASQKIPVIPDDFRCPISLEMMRDPVIVSSGQTYERTCIEKWIEGGHSTCPKTQQALTSTTLTPNYVLRSLIAQWCEANDIEPPKPPSSLRPRKVSSFSSPAEANKIEDLMWRLAYGNPEDQRSAAGEIRLLAKRNADNRVAIAEAGAIPLLVGLLSTPDSRIQEHSVTALLNLSICENNKGAIVSAGAIPGIVQVLKKGSMEARENAAATLFSLSVIDENKVTIGALGAIPPLVVLLNEGTQRGKKDAATALFNLCIYQGNKGKAIRAGVIPTLTRLLTEPGSGMVDEALAILAILSSHPEGKAIIGSSDAVPSLVEFIRTGSPRNRENAAAVLVHLCSGDPQHLVEAQKLGLMGPLIDLAGNGTDRGKRKAAQLLERISRLAEQQKETAVSQPEEEAEPTHPESTTEAADT
B2: U-box–nYFP (domain or fragment, UniProt Q9SNC6 255-329)
chain: VIPDDFRCPISLEMMRDPVIVSSGQTYERTCIEKWIEGGHSTCPKTQQALTSTTLTPNYVLRSLIAQWCEANDIE

How the values were obtained:
MBP–FLS2CD (Arabidopsis) = MBP–FLS2CD (Arabidopsis) (UniProt Q9FL28); assay: pull-down; About 10 μg of MBP or MBP fusion on amylose beads as bait, 10 μg of GST-tagged protein in 1 ml pull-down buffer (20mM TRIS-HCl pH 7.5, 1mM β-mercaptoethanol, 3mM EDTA, 150mM NaCl, 1% NP-40), 1h at 4 °C; western blot with α-GST (Fig. 1B, 1F); both purified
BAK1–cYFP (Arabidopsis) = target: T1, BAK1–cYFP (Arabidopsis); assay: split reporter; BiFC in Arabidopsis protoplasts co-transfected with nYFP and cYFP fusions; confocal microscopy 18h after transfection (Fig. 1D)

| Binder | binding (MBP–FLS2CD (Arabidopsis)) | binding (BAK1–cYFP (Arabidopsis)) |
| --- | --- | --- |
| B1 | no binding (tested: 10 μg of each protein in 1 ml) |  |
| B2 |  | no binding |
